PubChem BioAssay AID1224830 | NIAID | 2016

Test: 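Host factors that control LPS-induced TNF expression in human macrophages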 (primary screen)
Cell system: human THP-1 monocytic leukaemia cells, TNF dual-luciferase reporter clone, PMA-differentiated to macrophage-like cells
Knock-down reagent: siRNA pool against human genes, 50 nM
Timing: LPS for 4 h, given about 3 days after siRNA transfection
Conditions: bacterial LPS (TLR4 ligand), 10 ng/ml
Read-out: 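Ratio of firefly to renilla light, scaled to the plate median and expressed as a robust z-score per replicate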
Direction: TNF reporter robust z-score: higher = stronger TNF reporter response to LPS
Call rule: 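a well is active when its z-score exceeds 2.8 or falls below -1.5; control wells carry no call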
This is one part, drawn at random, of about 18,000 reagents tested. Of all reagents, about 2,900 (16%) are marked active. 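Calls are made per well; low scores hint the gene aids the LPS response, high scores that it dampens it.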 Repeated entries: four replicate wells of each siRNA pool. No sequences are given here.

Target gene	TNF reporter robust z-score	outcome
CALML5 (GeneID 51806)	-0.45	inactive
CALML5 (GeneID 51806)	-0.63	inactive
CALML5 (GeneID 51806)	0.4	inactive
CALML5 (GeneID 51806)	-0.48	inactive
COG2 (GeneID 22796)	0.04	inactive
COG2 (GeneID 22796)	0.89	inactive
COG2 (GeneID 22796)	0.65	inactive
COG2 (GeneID 22796)	-0.41	inactive
TLDC2 (GeneID 140711)	0.34	inactive
TLDC2 (GeneID 140711)	0.15	inactive
TLDC2 (GeneID 140711)	0.27	inactive
JAG1 (GeneID 182)	-1.17	inactive
JAG1 (GeneID 182)	-0.98	inactive
JAG1 (GeneID 182)	-1.19	inactive
JAG1 (GeneID 182)	-0.03	inactive
BAAT (GeneID 570)	-1.02	inactive
BAAT (GeneID 570)	-0.24	inactive
BAAT (GeneID 570)	-0.62	inactive
BAAT (GeneID 570)	-1.04	inactive
CHIC1 (GeneID 53344)	0	inactive
CHIC1 (GeneID 53344)	-0.55	inactive
CHIC1 (GeneID 53344)	-1.47	inactive
CHIC1 (GeneID 53344)	-1.36	inactive
ANKRD22 (GeneID 118932)	0.56	inactive
ANKRD22 (GeneID 118932)	1.27	inactive
ANKRD22 (GeneID 118932)	-0.1	inactive
ANKRD22 (GeneID 118932)	1.84	inactive
CEP131 (GeneID 22994)	-0.15	inactive
CEP131 (GeneID 22994)	-0.33	inactive
CEP131 (GeneID 22994)	1.39	inactive
C1QTNF1 (GeneID 114897)	0.08	inactive
C1QTNF1 (GeneID 114897)	-0.69	inactive
C1QTNF1 (GeneID 114897)	0.03	inactive
C1QTNF1 (GeneID 114897)	0.63	inactive
BROX (GeneID 148362)	-0.83	inactive
BROX (GeneID 148362)	-1.05	inactive
BROX (GeneID 148362)	-0.79	inactive
BROX (GeneID 148362)	-0.78	inactive
ZDHHC15 (GeneID 158866)	-0.78	inactive
ZDHHC15 (GeneID 158866)	-0.88	inactive
ZDHHC15 (GeneID 158866)	-1.21	inactive
ZDHHC15 (GeneID 158866)	-0.11	inactive
CRACDL (GeneID 343990)	-0.67	inactive
CRACDL (GeneID 343990)	-1.05	inactive
CRACDL (GeneID 343990)	-0.6	inactive
CRACDL (GeneID 343990)	0.08	inactive
MCU (GeneID 90550)	-0.32	inactive
MCU (GeneID 90550)	0.32	inactive
MCU (GeneID 90550)	0.12	inactive
MCU (GeneID 90550)	0.04	inactive
NPRL3 (GeneID 8131)	-0.37	inactive
NPRL3 (GeneID 8131)	0.38	inactive
NPRL3 (GeneID 8131)	-0.61	inactive
NPRL3 (GeneID 8131)	1.16	inactive
TRAPPC6A (GeneID 79090)	0.1	inactive
TRAPPC6A (GeneID 79090)	-0.15	inactive
TRAPPC6A (GeneID 79090)	-0.55	inactive
TRAPPC6A (GeneID 79090)	0.31	inactive
LINS1 (GeneID 55180)	-0.2	inactive
LINS1 (GeneID 55180)	0.15	inactive
LINS1 (GeneID 55180)	0.51	inactive
LINS1 (GeneID 55180)	-0.57	inactive
NEU2 (GeneID 4759)	-1.36	inactive
NEU2 (GeneID 4759)	-0.73	inactive
NEU2 (GeneID 4759)	-0.66	inactive
NEU2 (GeneID 4759)	-0.5	inactive
CCND1 (GeneID 595)	1.4	inactive
CCND1 (GeneID 595)	2.04	inactive
CCND1 (GeneID 595)	1.59	inactive
CCND1 (GeneID 595)	2.82	active
AP4B1 (GeneID 10717)	-1.27	inactive
AP4B1 (GeneID 10717)	-1.11	inactive
AP4B1 (GeneID 10717)	-1.01	inactive
AP4B1 (GeneID 10717)	-0.91	inactive
PTP4A3 (GeneID 11156)	-0.58	inactive
PTP4A3 (GeneID 11156)	-1.18	inactive
PTP4A3 (GeneID 11156)	-0.6	inactive
PTP4A3 (GeneID 11156)	1.09	inactive
NDUFA12 (GeneID 55967)	-0.62	inactive
NDUFA12 (GeneID 55967)	-0.93	inactive
NDUFA12 (GeneID 55967)	-0.68	inactive
NDUFA12 (GeneID 55967)	0.16	inactive
CHD8 (GeneID 57680)	3.26	active
CHD8 (GeneID 57680)	3.7	active
CHD8 (GeneID 57680)	1.83	inactive
CHD8 (GeneID 57680)	2.55	inactive
GAD2 (GeneID 2572)	-0.48	inactive
GAD2 (GeneID 2572)	-0.51	inactive
GAD2 (GeneID 2572)	-0.72	inactive
GAD2 (GeneID 2572)	-0.15	inactive
PDCD7 (GeneID 10081)	0.27	inactive
PDCD7 (GeneID 10081)	0.97	inactive
PDCD7 (GeneID 10081)	0.4	inactive
PDCD7 (GeneID 10081)	-0.82	inactive
GCM2 (GeneID 9247)	0.58	inactive
GCM2 (GeneID 9247)	0.59	inactive
GCM2 (GeneID 9247)	-0.57	inactive
GCM2 (GeneID 9247)	0.47	inactive
CCM2 (GeneID 83605)	-1.04	inactive
CCM2 (GeneID 83605)	0.32	inactive
CCM2 (GeneID 83605)	0.44	inactive
CCM2 (GeneID 83605)	-0.02	inactive
SDCCAG8 (GeneID 10806)	-1.25	inactive
SDCCAG8 (GeneID 10806)	2.3	inactive
SDCCAG8 (GeneID 10806)	0.23	inactive
SDCCAG8 (GeneID 10806)	0.88	inactive
ZNF436-AS1 (GeneID 148898)	-0.23	inactive
ZNF436-AS1 (GeneID 148898)	1.42	inactive
ZNF436-AS1 (GeneID 148898)	-0.77	inactive
ZNF436-AS1 (GeneID 148898)	-1.02	inactive
LILRB4 (GeneID 11006)	1.07	inactive
LILRB4 (GeneID 11006)	2.41	inactive
LILRB4 (GeneID 11006)	2.86	active
LILRB4 (GeneID 11006)	1.1	inactive
SLC13A3 (GeneID 64849)	1.13	inactive
SLC13A3 (GeneID 64849)	3.89	active
SLC13A3 (GeneID 64849)	2.56	inactive
SLC13A3 (GeneID 64849)	4.46	active
ZNF567 (GeneID 163081)	-1.31	inactive
ZNF567 (GeneID 163081)	-1.87	active
ZNF567 (GeneID 163081)	-1.43	inactive
ZNF567 (GeneID 163081)	-1.4	inactive
APTX (GeneID 54840)	-0.02	inactive
APTX (GeneID 54840)	0.26	inactive
APTX (GeneID 54840)	-0.11	inactive
APTX (GeneID 54840)	1.3	inactive
TNPO2 (GeneID 30000)	0.46	inactive
TNPO2 (GeneID 30000)	1.76	inactive
TNPO2 (GeneID 30000)	0.68	inactive
TNPO2 (GeneID 30000)	-1.64	active
CKAP2 (GeneID 26586)	0.21	inactive
CKAP2 (GeneID 26586)	1.6	inactive
CKAP2 (GeneID 26586)	0.55	inactive
CKAP2 (GeneID 26586)	-0.3	inactive
GFRA1 (GeneID 2674)	-0.2	inactive
GFRA1 (GeneID 2674)	0.19	inactive
GFRA1 (GeneID 2674)	-0.6	inactive
GFRA1 (GeneID 2674)	-0.08	inactive
TMEM200C (GeneID 645369)	-0.13	inactive
TMEM200C (GeneID 645369)	-0.4	inactive
TMEM200C (GeneID 645369)	-1.04	inactive
TMEM200C (GeneID 645369)	0.95	inactive

Hits, among the entries above:
Target gene	TNF reporter robust z-score	outcome
CCND1 (GeneID 595)	2.82	active
CHD8 (GeneID 57680)	3.26	active
CHD8 (GeneID 57680)	3.7	active
LILRB4 (GeneID 11006)	2.86	active
SLC13A3 (GeneID 64849)	3.89	active
SLC13A3 (GeneID 64849)	4.46	active
ZNF567 (GeneID 163081)	-1.87	active
TNPO2 (GeneID 30000)	-1.64	active
